The other results are listed elsewhere or left out.
Key:
Assay in all cases: log2 fold change, soluble protein after heating vs DMSO (PISA); higher = thermal stabilisation; K562 lysate, 10 uM; active = over 0.2 and 3.5 SD of the protein, either way, in both replicates (recomputed)
[1] = compound: CN1CC[C@H](c2c(O)cc(O)c3c(=O)cc(-c4ccccc4Cl)oc23)[C@H](O)C1 [alvocidib]
Procedure, shortened: (§1)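 Values give the log-two fold change in thermal stability against solvent controls, from duplicates. Crude K562 extract at 1 mg/mL protein, made by dounce homogenisation in PBS pH 7.4 with 1 mM MgCl2, was treated with 10 μM compound for 30 min. After 3 min heating across 48°C-58°C, aliquots were pooled, adjusted to 0.5% NP-40 at 4°C and centrifuged at 21,000xg for 90 min. The supernatant was measured by TMTpro 16plex LC-MS/MS with channel sums equalised.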

By UniProt entry, the sequences of proteins in these tests, tags left out. Where a name states a change or a piece, a line headed by the entry shows the natural chain unless it says otherwise.
UniProt Q9ULC3: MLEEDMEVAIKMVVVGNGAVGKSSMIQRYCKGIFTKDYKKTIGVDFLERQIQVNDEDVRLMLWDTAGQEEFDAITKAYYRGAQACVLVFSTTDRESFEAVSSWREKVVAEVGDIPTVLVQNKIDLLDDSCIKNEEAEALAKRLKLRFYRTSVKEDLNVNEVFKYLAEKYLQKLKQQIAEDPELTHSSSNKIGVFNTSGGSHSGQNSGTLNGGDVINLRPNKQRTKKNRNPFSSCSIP
UniProt P52306: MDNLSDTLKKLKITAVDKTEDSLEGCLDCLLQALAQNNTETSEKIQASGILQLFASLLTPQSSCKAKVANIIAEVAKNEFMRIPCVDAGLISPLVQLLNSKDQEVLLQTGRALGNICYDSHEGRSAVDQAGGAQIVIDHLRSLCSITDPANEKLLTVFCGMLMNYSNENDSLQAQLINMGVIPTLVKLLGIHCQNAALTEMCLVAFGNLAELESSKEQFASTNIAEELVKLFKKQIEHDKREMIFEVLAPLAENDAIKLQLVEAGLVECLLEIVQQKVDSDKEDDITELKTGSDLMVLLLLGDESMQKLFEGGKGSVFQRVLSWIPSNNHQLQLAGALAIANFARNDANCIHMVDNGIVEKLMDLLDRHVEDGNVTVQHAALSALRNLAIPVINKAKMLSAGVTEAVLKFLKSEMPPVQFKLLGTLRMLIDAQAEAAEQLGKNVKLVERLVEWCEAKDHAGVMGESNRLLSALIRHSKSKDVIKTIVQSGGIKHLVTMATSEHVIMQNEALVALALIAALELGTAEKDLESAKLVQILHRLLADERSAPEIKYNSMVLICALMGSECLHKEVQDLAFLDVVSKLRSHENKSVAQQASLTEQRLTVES
UniProt Q9Y3L5: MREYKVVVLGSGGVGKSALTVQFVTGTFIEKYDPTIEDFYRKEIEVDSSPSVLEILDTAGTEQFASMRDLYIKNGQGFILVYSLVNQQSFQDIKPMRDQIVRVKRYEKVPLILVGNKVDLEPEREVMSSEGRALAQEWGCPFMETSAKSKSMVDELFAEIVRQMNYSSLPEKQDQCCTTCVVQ
UniProt Q9BTL3: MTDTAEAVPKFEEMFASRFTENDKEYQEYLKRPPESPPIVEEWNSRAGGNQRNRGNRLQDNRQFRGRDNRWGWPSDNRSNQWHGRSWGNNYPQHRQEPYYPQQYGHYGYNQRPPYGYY
UniProt P61020: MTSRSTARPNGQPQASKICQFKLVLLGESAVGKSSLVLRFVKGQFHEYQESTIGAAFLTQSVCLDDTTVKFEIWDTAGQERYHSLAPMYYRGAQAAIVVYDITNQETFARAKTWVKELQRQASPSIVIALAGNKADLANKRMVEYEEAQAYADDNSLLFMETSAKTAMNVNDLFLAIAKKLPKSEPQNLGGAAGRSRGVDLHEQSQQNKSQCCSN
UniProt P61019: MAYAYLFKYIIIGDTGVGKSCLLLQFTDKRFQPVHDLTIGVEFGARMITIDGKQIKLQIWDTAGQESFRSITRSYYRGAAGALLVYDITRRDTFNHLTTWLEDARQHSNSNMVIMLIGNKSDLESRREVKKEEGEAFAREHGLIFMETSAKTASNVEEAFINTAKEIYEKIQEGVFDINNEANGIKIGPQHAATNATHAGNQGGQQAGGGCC
UniProt P53611: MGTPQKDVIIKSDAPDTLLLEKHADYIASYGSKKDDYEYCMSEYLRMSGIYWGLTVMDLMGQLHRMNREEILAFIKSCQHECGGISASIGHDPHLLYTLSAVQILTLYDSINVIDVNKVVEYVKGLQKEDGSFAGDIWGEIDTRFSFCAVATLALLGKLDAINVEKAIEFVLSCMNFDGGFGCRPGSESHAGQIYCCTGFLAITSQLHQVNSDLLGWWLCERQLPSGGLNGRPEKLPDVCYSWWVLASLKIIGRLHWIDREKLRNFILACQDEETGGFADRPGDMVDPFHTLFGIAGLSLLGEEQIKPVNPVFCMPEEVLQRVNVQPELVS
UniProt Q9H5N1: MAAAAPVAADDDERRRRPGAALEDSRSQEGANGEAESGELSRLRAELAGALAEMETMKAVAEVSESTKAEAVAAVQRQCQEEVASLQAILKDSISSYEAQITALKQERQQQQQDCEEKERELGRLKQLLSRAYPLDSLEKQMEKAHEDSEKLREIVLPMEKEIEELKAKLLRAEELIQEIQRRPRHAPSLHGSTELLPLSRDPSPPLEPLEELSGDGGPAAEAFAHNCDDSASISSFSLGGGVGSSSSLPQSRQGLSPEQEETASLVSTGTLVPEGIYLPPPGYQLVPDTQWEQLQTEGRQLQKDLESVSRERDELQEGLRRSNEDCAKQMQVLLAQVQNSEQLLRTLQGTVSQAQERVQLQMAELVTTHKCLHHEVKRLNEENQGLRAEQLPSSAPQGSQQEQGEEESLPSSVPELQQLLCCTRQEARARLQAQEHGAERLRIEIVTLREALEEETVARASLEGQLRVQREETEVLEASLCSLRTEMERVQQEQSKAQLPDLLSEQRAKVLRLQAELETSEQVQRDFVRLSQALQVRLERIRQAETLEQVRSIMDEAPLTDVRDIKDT
UniProt Q13637: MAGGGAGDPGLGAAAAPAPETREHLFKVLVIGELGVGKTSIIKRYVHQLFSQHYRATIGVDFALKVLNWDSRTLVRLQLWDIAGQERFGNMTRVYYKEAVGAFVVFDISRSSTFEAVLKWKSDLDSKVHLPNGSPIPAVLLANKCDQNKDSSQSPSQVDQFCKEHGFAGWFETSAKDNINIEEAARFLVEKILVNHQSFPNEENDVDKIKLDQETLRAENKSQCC
UniProt Q15042: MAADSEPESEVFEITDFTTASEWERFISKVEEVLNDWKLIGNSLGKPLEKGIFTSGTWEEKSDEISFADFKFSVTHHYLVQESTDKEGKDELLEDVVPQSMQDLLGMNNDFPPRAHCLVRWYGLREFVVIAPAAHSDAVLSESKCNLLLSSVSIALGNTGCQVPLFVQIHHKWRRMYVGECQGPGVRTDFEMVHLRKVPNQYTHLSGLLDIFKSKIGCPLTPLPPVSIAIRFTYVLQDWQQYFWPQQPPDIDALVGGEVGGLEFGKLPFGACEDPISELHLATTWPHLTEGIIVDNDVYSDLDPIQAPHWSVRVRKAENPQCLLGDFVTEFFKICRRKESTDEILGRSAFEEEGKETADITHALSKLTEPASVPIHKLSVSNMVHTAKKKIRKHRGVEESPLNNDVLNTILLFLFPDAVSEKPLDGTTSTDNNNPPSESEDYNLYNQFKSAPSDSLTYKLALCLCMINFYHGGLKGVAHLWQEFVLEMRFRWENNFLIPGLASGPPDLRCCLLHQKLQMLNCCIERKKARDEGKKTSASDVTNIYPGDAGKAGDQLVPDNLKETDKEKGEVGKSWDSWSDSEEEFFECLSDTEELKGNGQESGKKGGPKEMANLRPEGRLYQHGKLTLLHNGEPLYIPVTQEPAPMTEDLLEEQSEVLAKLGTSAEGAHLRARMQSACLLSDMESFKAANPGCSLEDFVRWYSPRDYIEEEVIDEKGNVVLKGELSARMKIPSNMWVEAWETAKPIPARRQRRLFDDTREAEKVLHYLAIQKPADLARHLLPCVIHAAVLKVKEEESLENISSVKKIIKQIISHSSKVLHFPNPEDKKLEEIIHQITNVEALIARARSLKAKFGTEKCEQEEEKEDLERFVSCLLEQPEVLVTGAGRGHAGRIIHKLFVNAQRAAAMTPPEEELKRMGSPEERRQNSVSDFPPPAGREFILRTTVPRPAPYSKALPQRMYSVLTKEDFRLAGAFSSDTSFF
UniProt P06737: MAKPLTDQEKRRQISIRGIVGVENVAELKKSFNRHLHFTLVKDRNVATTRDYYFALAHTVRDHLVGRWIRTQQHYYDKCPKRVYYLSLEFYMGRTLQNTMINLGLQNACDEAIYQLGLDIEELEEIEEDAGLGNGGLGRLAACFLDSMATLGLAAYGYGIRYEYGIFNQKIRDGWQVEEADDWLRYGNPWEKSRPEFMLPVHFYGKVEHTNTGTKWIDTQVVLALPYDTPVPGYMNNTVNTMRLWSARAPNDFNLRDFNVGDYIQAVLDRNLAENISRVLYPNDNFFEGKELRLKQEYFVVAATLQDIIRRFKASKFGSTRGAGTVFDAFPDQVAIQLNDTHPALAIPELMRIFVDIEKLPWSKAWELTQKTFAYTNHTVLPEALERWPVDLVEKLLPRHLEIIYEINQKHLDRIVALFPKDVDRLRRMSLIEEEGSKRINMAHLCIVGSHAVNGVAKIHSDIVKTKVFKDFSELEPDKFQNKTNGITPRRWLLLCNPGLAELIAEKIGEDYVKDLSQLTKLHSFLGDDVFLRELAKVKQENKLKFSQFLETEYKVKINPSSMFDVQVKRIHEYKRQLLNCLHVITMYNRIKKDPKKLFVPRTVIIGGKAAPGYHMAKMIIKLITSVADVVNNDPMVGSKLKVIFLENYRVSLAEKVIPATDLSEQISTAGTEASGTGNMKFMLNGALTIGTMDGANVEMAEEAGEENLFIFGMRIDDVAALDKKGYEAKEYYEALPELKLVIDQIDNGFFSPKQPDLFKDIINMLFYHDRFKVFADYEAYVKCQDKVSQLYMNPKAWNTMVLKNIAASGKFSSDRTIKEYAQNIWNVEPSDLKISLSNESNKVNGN
UniProt P61026: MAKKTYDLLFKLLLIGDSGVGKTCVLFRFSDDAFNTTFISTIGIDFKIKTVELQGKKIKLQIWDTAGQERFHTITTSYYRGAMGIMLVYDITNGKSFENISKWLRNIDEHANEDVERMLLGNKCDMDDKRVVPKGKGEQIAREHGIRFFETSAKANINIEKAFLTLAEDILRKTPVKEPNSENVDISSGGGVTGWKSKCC
UniProt Q96C36: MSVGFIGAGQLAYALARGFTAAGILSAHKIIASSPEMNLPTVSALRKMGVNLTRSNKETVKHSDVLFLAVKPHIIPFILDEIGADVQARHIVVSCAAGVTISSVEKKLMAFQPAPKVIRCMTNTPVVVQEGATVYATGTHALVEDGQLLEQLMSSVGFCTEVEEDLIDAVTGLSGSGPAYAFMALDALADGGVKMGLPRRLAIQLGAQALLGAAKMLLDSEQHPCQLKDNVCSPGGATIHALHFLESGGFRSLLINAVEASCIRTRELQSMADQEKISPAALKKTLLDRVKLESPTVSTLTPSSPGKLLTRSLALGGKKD
UniProt P61106, whole entry, looked up: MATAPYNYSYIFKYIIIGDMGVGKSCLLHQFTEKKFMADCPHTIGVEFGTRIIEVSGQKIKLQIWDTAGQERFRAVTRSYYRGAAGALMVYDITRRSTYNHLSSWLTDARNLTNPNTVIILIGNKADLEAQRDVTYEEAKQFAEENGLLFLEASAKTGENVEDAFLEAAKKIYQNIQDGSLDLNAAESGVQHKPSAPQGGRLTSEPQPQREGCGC
UniProt Q15274: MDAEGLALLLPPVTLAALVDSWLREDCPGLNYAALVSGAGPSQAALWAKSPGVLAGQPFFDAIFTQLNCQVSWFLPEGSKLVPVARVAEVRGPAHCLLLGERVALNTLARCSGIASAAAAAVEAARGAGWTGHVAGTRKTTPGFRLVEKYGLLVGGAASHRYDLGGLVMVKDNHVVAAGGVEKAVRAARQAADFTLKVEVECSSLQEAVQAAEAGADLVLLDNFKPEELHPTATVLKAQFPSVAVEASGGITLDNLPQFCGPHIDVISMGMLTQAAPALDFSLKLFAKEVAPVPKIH

[2] = compound: CN1CCc2c(c3ccccc3n2Cc2ccc(C(=O)NO)cc2)C1 [Tubastatin A]
Procedure, shortened: as §1

[3] = compound: CNC(=O)C1=CC=CC=C1NC2=NC(=NC=C2Cl)NC3=C(C=C(C=C3)N4CCOCC4)OC
Procedure, shortened: as §1

[4] = compound: CNC(=O)c1ccc(Nc2ncc(C(F)(F)F)c(NCc3nccnc3N(C)S(C)(=O)=O)n2)cc1 [defactinib]
Procedure, shortened: as §1

[5] = compound: CNc1nc(-c2ccc3c(N)n[nH]c3c2)cc(N2C[C@@H](C(=O)NC3CCCCC3)CC[C@H]2C)n1
Procedure, shortened: as §1

[6] = compound: COC(=O)N[C@@H](C)CNc1nccc(-c2cn(C(C)C)nc2-c2cc(Cl)cc(NS(C)(=O)=O)c2F)n1 [encorafenib]
Procedure, shortened: as §1

[7] = compound: COC(=O)[C@H](CCSC)NC(=O)C1=C(C=C(C=C1)NC[C@H](CS)N)C2=CC=CC=C2
Procedure, shortened: as §1

[8] = compound: COc1cc(Nc2ncc3c(n2)-c2ccc(Cl)cc2C(c2c(F)cccc2OC)=NC3)ccc1C(=O)O [alisertib]
Procedure, shortened: as §1

[9] = compound: COc1cc2nc(-c3cc(F)ccc3O)nc(N[C@@H]3CNC[C@H]3C(C)(C)O)c2cc1OC
Procedure, shortened: as §1

[10] = compound: COc1cc2ncnc(Nc3ccc(F)c(Cl)c3)c2cc1OCCCN1CCOCC1 [gefitinib]
Procedure, shortened: as §1

[11] = compound: CS(=O)(=O)CCNCc1ccc(-c2ccc3ncnc(Nc4ccc(OCc5cccc(F)c5)c(Cl)c4)c3c2)o1 [lapatinib]
Procedure, shortened: as §1

[12] = compound: CS(=O)(=O)N1CCN(Cc2cc3nc(-c4cccc5[nH]ncc45)nc(N4CCOCC4)c3s2)CC1 [pictilisib]
Procedure, shortened: as §1

[13] = compound: C[C@@H](Oc1cc(-c2cnn(C3CCNCC3)c2)cnc1N)c1c(Cl)ccc(F)c1Cl [crizotinib]
Procedure, shortened: as §1

[14] = compound: C[C@H](C1=CC=C(C=C1)C(=O)NC2=C3C=CNC3=NC=C2)N
Procedure, shortened: as §1

[15] = compound: C[C@H](Nc1ncnc2nc[nH]c12)c1cc2cccc(Cl)c2c(=O)n1-c1ccccc1 [duvelisib]
Procedure, shortened: as §1

[16] = compound: Cc1cc(Nc2cc(CN3CCOCC3)c3nc(C)c(Cc4ccc(Cl)cc4F)n3n2)n[nH]1 [gandotinib]
Procedure, shortened: as §1

[17] = compound: Cc1cc(Nc2cc(N3CCN(C)CC3)nc(Sc3ccc(NC(=O)C4CC4)cc3)n2)n[nH]1 [tozasertib]
Procedure, shortened: as §1

[18] = compound: Cc1ccc(-n2nc(C(C)(C)C)cc2NC(=O)Nc2ccc(OCCN3CCOCC3)c3ccccc23)cc1 [doramapimod]
Procedure, shortened: as §1

[19] = compound: Cc1ccc(NC(=O)c2ccc(CN3CC[C@H](N(C)C)C3)c(C(F)(F)F)c2)cc1Nc1nccc(-c2cncnc2)n1 [bafetinib]
Procedure, shortened: as §1

[20] = compound: Cc1cccc(CC(=O)N2CCc3c2ccc(-c2cn(C)c4ncnc(N)c24)c3F)n1
Procedure, shortened: as §1

Measured: log2 fold change

RAB23 (UniProt Q9ULC3)
inactive: [1] -0.065 | [2] 0.085 | [3] -0.061 | [4] -0.005 | [5] -0.162 | [6] 0.027 | [7] 0.048 | [8] 0.063 | [9] 0.061 | [10] 0.054 | [11] 0.007 | [12] -0.004 | [13] 0.074 | [14] -0.032 | [15] -0.051 | [16] 0.028 | [17] 0.017 | [18] 0.08 | [19] 0.041 | [20] 0.127

RAP1GDS1 isoform 5 (UniProt P52306)
inactive: [1] -0.01 | [2] -0.037 | [3] 0.018 | [4] -0.061 | [5] -0.018 | [6] 0.019 | [7] 0.013 | [8] 0.031 | [9] -0.009 | [10] 0.062 | [11] 0.007 | [12] -0.019 | [13] 0.017 | [14] -0.073 | [15] 0.02 | [16] -0.04 | [17] 0.012 | [18] 0.01 | [19] 0.014 | [20] 0.04

RAP2C (UniProt Q9Y3L5)
inactive: [1] 0.051 | [2] 0.039 | [3] 0.037 | [4] -0.025 | [5] -0.051 | [6] -0.056 | [7] -0.001 | [8] 0.026 | [9] 0.059 | [10] -0.089 | [11] 0.062 | [12] -0.135 | [13] -0.028 | [14] 0.038 | [15] 0.053 | [16] -0.077 | [17] 0.086 | [18] -0.004 | [19] 0.085 | [20] 0.157

RAMAC (UniProt Q9BTL3)
inactive: [1] 0.025 | [2] 0.048 | [3] 0.076 | [4] 0.019 | [5] -0.041 | [6] -0.027 | [7] 0.006 | [8] -0.004 | [9] -0.074 | [10] -0.019 | [11] 0.035 | [12] 0.06 | [13] 0.061 | [14] 0.078 | [15] -0.019 | [16] -0.047 | [17] 0.084 | [18] -0.035 | [19] 0.142 | [20] -0.009

RAB5B (UniProt P61020)
inactive: [1] 0.004 | [2] 0.105 | [3] 0.015 | [4] 0.019 | [5] 0.027 | [6] 0 | [7] -0.117 | [8] 0.009 | [9] 0.001 | [10] -0.022 | [11] -0.032 | [12] -0.055 | [13] 0.013 | [14] -0.042 | [15] -0.033 | [16] 0.017 | [17] -0.032 | [18] 0.006 | [19] 0.032 | [20] -0.003

RABGAP1L isoform 3 (UniProt Q5R372)
inactive: [1] -0.028 | [2] -0.048 | [3] 0.005 | [4] -0.018 | [5] 0.052 | [6] 0.037 | [7] 0.002 | [8] -0.026 | [9] 0.026 | [10] 0.005 | [11] -0.028 | [12] 0.035 | [13] 0.002 | [14] -0.085 | [15] 0.012 | [16] 0.012 | [17] -0.043 | [18] 0.034 | [19] -0.033 | [20] 0.069

RAB2A (UniProt P61019)
inactive: [1] -0.014 | [2] 0.017 | [3] 0.01 | [4] 0.03 | [5] -0.133 | [6] 0.091 | [7] -0.083 | [8] 0.039 | [9] 0.019 | [10] 0.016 | [11] -0.007 | [12] -0.009 | [13] 0.061 | [14] 0.003 | [15] -0.007 | [16] -0.072 | [17] 0.068 | [18] -0.025 | [19] -0.014 | [20] -0.038

RABGGTB (UniProt P53611)
inactive: [1] -0.015 | [2] -0.043 | [3] -0.025 | [4] 0.031 | [5] -0.021 | [6] 0.044 | [7] 0.065 | [8] 0.005 | [9] 0.002 | [10] -0.002 | [11] -0.02 | [12] 0.006 | [13] -0.031 | [14] 0.135 | [15] 0.043 | [16] -0.051 | [17] -0.023 | [18] 0.016 | [19] -0.087 | [20] 0.028

RABEP2 (UniProt Q9H5N1)
inactive: [1] 0.024 | [2] -0.037 | [3] 0.054 | [4] -0.016 | [5] 0.016 | [6] 0.002 | [7] 0.03 | [8] 0.004 | [9] -0.011 | [10] -0.041 | [11] -0.022 | [12] -0.047 | [13] -0.007 | [14] 0.114 | [15] -0.007 | [16] 0 | [17] -0.008 | [18] -0.027 | [19] -0.016 | [20] -0.041

RAB32 (UniProt Q13637)
inactive: [1] 0.057 | [2] 0.052 | [3] -0.016 | [4] 0.029 | [5] -0.039 | [6] 0 | [7] -0.043 | [8] -0.035 | [9] -0.041 | [10] 0.042 | [11] 0.015 | [12] 0.015 | [13] -0.042 | [14] -0.313 | [15] 0.003 | [16] 0.119 | [17] -0.022 | [18] -0.022 | [19] -0.022 | [20] 0.13

RAB3GAP1 (UniProt Q15042)
inactive: [1] 0.008 | [2] -0.039 | [3] 0.02 | [4] -0.011 | [5] -0.056 | [6] 0.027 | [7] 0.046 | [8] 0.022 | [9] 0.002 | [10] -0.021 | [11] 0.012 | [12] 0.003 | [13] -0.059 | [14] -0.004 | [15] -0.012 | [16] -0.077 | [17] 0.002 | [18] 0.018 | [19] -0.056 | [20] 0.014

PYGL (UniProt P06737)
inactive: [1] 0.168 | [2] 0.006 | [3] -0.012 | [4] -0.016 | [5] -0.05 | [6] -0.031 | [7] -0.012 | [8] -0.005 | [9] -0.006 | [10] 0.011 | [11] -0.003 | [12] -0.012 | [13] 0.008 | [14] -0.045 | [15] 0.011 | [16] 0.004 | [17] 0.023 | [18] -0.016 | [19] 0.02 | [20] 0

RAB10 (UniProt P61026)
inactive: [1] 0.003 | [2] 0.051 | [3] -0.032 | [4] 0.003 | [5] 0.02 | [6] 0.019 | [7] -0.02 | [8] 0.06 | [9] 0.082 | [10] 0.073 | [11] 0.049 | [12] -0.014 | [13] 0.083 | [14] -0.026 | [15] -0.021 | [16] -0.004 | [17] 0.016 | [18] -0.018 | [19] 0.015 | [20] -0.007

Looked up one by one from above, two records:
RAB10 (UniProt P61026)
inactive: [1] 0.003 | [2] 0.051 | [3] -0.032 | [4] 0.003 | [5] 0.02 | [6] 0.019 | [7] -0.02 | [8] 0.06 | [9] 0.082 | [10] 0.073 | [11] 0.049 | [12] -0.014 | [13] 0.083 | [14] -0.026 | [15] -0.021 | [16] -0.004 | [17] 0.016 | [18] -0.018 | [19] 0.015 | [20] -0.007

RABEP2 (UniProt Q9H5N1)
inactive: [1] 0.024 | [2] -0.037 | [3] 0.054 | [4] -0.016 | [5] 0.016 | [6] 0.002 | [7] 0.03 | [8] 0.004 | [9] -0.011 | [10] -0.041 | [11] -0.022 | [12] -0.047 | [13] -0.007 | [14] 0.114 | [15] -0.007 | [16] 0 | [17] -0.008 | [18] -0.027 | [19] -0.016 | [20] -0.041

Next part.

PYCR2 (UniProt Q96C36)
inactive: [1] -0.052 | [2] 0.041 | [3] 0.004 | [4] 0.001 | [5] 0.011 | [6] -0.005 | [7] -0.038 | [8] 0.013 | [9] -0.001 | [10] -0.005 | [11] -0.029 | [12] -0.021 | [13] 0.026 | [14] 0.021 | [15] -0.004 | [16] 0.01 | [17] 0.001 | [18] -0.012 | [19] 0.034 | [20] -0.01

RAB14 (UniProt P61106)
inactive: [1] -0.032 | [2] 0.071 | [3] -0.013 | [4] 0.001 | [5] 0.046 | [6] 0.015 | [7] -0.124 | [8] -0.018 | [9] 0.048 | [10] -0.017 | [11] -0.041 | [12] -0.039 | [13] -0.035 | [14] -0.113 | [15] -0.02 | [16] 0.04 | [17] 0.015 | [18] -0.029 | [19] -0.038 | [20] 0.052

QPRT (UniProt Q15274)
inactive: [1] 0.003 | [2] 0.034 | [3] -0.008 | [4] 0.052 | [5] 0.055 | [6] 0 | [7] -0.042 | [8] 0.01 | [9] -0.008 | [10] -0.009 | [11] -0.009 | [12] 0.01 | [13] 0 | [14] -0.016 | [15] 0.048 | [16] 0.031 | [17] 0.01 | [18] -0.039 | [19] 0.018 | [20] 0.057

— the supplement of paper PMC10849652
